Out of some 360,000 compounds screened, about 7,500 (2.1%) were called active. This list was built around the results that the source calls inconclusive (neither active nor inactive); the mix of calls is not that of the screen. The call rests on the fitted dose curve; in most records, active means well fitted inhibition curve with a large enough effect; inconclusive means small, poorly fitted or top-dose-only effect, or effect the other way; inactive means flat fitted curve, though single readings scatter. Where the call is inconclusive, the potency comes from a doubtful curve fit.
assay: Nrf2 qHTS screen for inhibitors; conditions: A549 ARE-Fluc reporter, luciferase luminescence, 18-24 h; series mostly up to 46 µM; further: nearly all actives have a fitted effect of over 60% in size
Summary of the method: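 A549 ARE_Fluc cells (5000/well, 5% FBS OPTI-MEM) pre-incubated 2 h, then treated with compounds 18-24 h at 37C/5% CO2 in concentration-response. CellTiter-Fluor viability read first; BugLite luciferase luminescence after 15 min at room temperature gives Nrf2 activity.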
Potency means the concentration at half of the fitted maximal effect.

SMILES | Potency
COc1cc(OC)cc(C(=O)N[C@H](C(=O)NC2=NCCS2)C(C)C)c1 | inactive
c1ccc2c(COn3nnc4ccccc43)cccc2c1 | inconclusive: 8.2 µM [activator, partial curve]
COc1ccc(-c2noc(CN(C(=O)c3ccc4c(c3)OCO4)C(C)C)n2)cc1 | inconclusive: 29.1 µM [falling, single point]
CCCOc1cccc(C(=O)NCCCNC(=O)c2ccccn2)c1 | inconclusive: 0.651 µM [falling, partial curve, poor fit]
Cc1nc(N)nc(N)c1-c1ccc(Cl)c(Cl)c1 | inconclusive: 1.46 µM [falling, full curve]
Cc1cccc(-c2nnc(SCC(=O)N3CCOCC3)o2)c1 | inconclusive: 7.31 µM [activator, partial curve]
Cc1ccc(NS(=O)(=O)c2cc3c(cc2N2CCC2)NC(=O)CC3)cc1C | inconclusive: 9.2 µM [falling, partial curve, poor fit]
CCNC(=O)Nc1nc2ccccc2s1 | inconclusive: 29.1 µM [activator, single point]
CCN(CC)CCCNC(=O)c1c(C)oc2ncnc(N3CCOCC3)c12 | inconclusive: 29.1 µM [activator, single point]
COc1ccc(NC(=O)CSc2nnc(-c3cccnc3)n2Cc2ccco2)c(OC)c1 | inconclusive: 4.11 µM [activator, partial curve, poor fit]
O=c1[nH]nc(-c2ccc(NCCO)c([N+](=O)[O-])c2)c2ccccc12 | inconclusive: 11.6 µM [falling, partial curve, poor fit]
Clc1ccc(Cn2nnc(-c3ccccc3)n2)cc1 | inconclusive: 20.6 µM [activator, single point]
O=C1CC(c2cc(F)ccc2F)c2cc3c(cc2N1)CCC3 (stereo unspecified) | inconclusive: 29.1 µM [falling, single point]
CC(C)(C)Cc1nc(-c2ccccn2)no1 | inconclusive: 23.1 µM [activator, partial curve]
Cc1ccc(-n2nc3c(c2NC(=O)/C=C\c2ccc4c(c2)OCO4)CSC3)c(C)c1 | inconclusive: 16.4 µM [falling, partial curve, poor fit]
CC(=O)c1c(C)[nH]c(C(=O)OCC(=O)Nc2c(C)cccc2C)c1C | active: 13 µM
COc1ccccc1CNC(=O)C(=O)NCCC1CCCCN1S(=O)(=O)c1cccs1 (stereo unspecified) | inconclusive: 23.1 µM [falling, single point]
CCCCC[n+]1cccc2c3ccccc3ccc21 | inconclusive: 0.82 µM [falling, full curve]
O=C1C=C(N2CCN(c3ccccn3)CC2)C(=O)c2c(O)ccc(O)c21 | inconclusive: 16.4 µM [falling, partial curve, poor fit]
O=C(Cn1c(=O)sc2ccccc21)Nc1nc2c(s1)CCCC2 | inconclusive: 29.1 µM [activator, single point]
Cc1c(C(=O)O)oc2ccc(S(=O)(=O)NCCC3=CCCCC3)cc12 | inconclusive: 0.184 µM [falling, full curve, poor fit]
COc1cccc(C2=Nn3c(nnc3-c3ccccc3C)SC2)c1 | inconclusive: 29.1 µM [falling, single point]

SMILES | Potency
O=C(NN=C1CCC(c2ccccc2)CC1)c1cc2c(s1)CCCC2 (stereo unspecified) | inactive
O=C(/C=C/c1ccco1)Nc1ccc(S(=O)(=O)N2CCOCC2)cc1 | inactive
O=C(Cc1cccs1)NCCSc1c(-c2ccc(Cl)cc2)[nH]c2ccccc12 | inconclusive: 29.1 µM [falling, single point]
Cc1[nH]c(C)c2c(=O)[nH]ncc12 | inconclusive: 16.4 µM [falling, single point]
COc1ccc(-c2nc(CSCC(=O)NCCc3ccc(C)cc3)c(C)o2)cc1OC | inconclusive: 14.6 µM [falling, partial curve, poor fit]
Cc1cc(C)n2nc(SCC(=O)N3CC(C)CC(C)C3)nc2n1 (stereo unspecified) | inconclusive: 16.4 µM [activator, partial curve, poor fit]
Cc1onc(-c2cccc(Cl)c2Cl)c1C(=O)O/N=C(\N)c1ccc([N+](=O)[O-])o1 | inactive
O=C(CC1C(=O)N(c2ccccc2)C(=S)N1c1ccccc1)c1ccccc1 (stereo unspecified) | inconclusive: 32.6 µM [falling, single point]
CCOC(=O)Nc1ccc2c3c(cccc13)-c1ccccc1-2 | inconclusive: 1.46 µM [activator, full curve]
O=C(COc1ccccc1[N+](=O)[O-])Nc1ccccc1N1CCCCC1 | inconclusive: 29.1 µM [falling, partial curve, poor fit]
CCC(NC(=O)c1ccc2nc(Cc3ccc(OC)cc3)oc2c1)c1ccncc1 (stereo unspecified) | inconclusive: 2.06 µM [falling, partial curve, poor fit]
COc1ccc(C(C)(C)C)cc1NC(=O)COc1ccc(-c2nnco2)cc1 | inconclusive: 8.2 µM [falling, partial curve]
COc1ccc(Cc2nnc(-c3ccccc3)o2)cc1 | inconclusive: 13 µM [activator, partial curve]
N=c1c2c(ncn1-c1ccccc1)Oc1ccc3ccccc3c1C2c1ccc2c(c1)OCO2 (stereo unspecified) | active: 20.6 µM
O=C(Nc1ccc(F)c(Cl)c1)N1CCN2CCCCC2C1 (stereo unspecified) | inconclusive: 16.4 µM [activator, single point]
CCN1C(=O)c2ccccc2S(=O)c2ccc(C(=O)N3CCCC3)cc21 (stereo unspecified) | inconclusive: 29.1 µM [falling, single point]
COc1ccccc1-c1cc(C(F)(F)F)nc(S(=O)(=O)CCCC(=O)Nc2cccnc2Cl)n1 | active: 20.6 µM
CCn1c(CNC(=O)c2cccs2)nnc1SCC(=O)Nc1ccc(Cl)cc1 | inconclusive: 5.8 µM [falling, partial curve, poor fit]
O=C(CSc1nc2scc(-c3ccccc3)c2c(=O)[nH]1)N1CCCCC1 | inconclusive: 10.3 µM [falling, partial curve, poor fit]
c1ccc(C(c2cccs2)c2c[nH]c3ccccc23)cc1 (stereo unspecified) | inconclusive: 18.4 µM [falling, partial curve]
O=C(O)CSc1nnc(-c2ccc3c(c2)OCO3)o1 | inactive
O=c1c(-c2ccc3c(c2)OCCO3)coc2c(CN3CCOCC3)c(O)ccc12 | inconclusive: 18.4 µM [activator, partial curve]

SMILES | Potency
CCCn1c(C)cc(C(=O)CSc2nc3ccccc3c(=O)n2Cc2ccco2)c1C | inconclusive: 1.46 µM [activator, partial curve]
Cc1cc(NS(=O)(=O)c2ccc3c(c2)CCC(=O)N3)ccc1Cl | inconclusive: 23.1 µM [falling, single point]
Cc1ccc(-c2noc(CN(C3CCCCC3)S(=O)(=O)c3ccc(Cl)cc3)n2)cc1 | inactive
Cn1c(=O)oc2cc(S(=O)(=O)NCc3ccc(F)cc3)ccc21 | inactive
Cc1ccc(OCC(=O)c2cc(C)n(-c3cc(C)on3)c2C)c([N+](=O)[O-])n1 | inconclusive: 32.6 µM [activator, single point]
Cc1ccccc1OCC(O)Cn1c(=N)n(CCN2CCOCC2)c2ccccc21 (stereo unspecified) | inactive
CCOc1ccc(NC(=O)CN(C)C(=O)CCN2C(=O)C3CC=CCC3C2=O)cc1OCC (stereo unspecified) | inactive
C[C@H](CO)N1C[C@H](C)[C@@H](CN(C)S(=O)(=O)c2ccccc2)Oc2c(NC(=O)Nc3ccccc3)cccc2C1=O | inactive
CCOC(=O)c1sc(Nc2ccc(C)cc2C)nc1C | inconclusive: 35.5 µM [falling, single point]
Oc1ccc(Cl)cc1Sc1cc(Cl)ccc1O | inactive
COc1ccc(-c2nc3n(n2)C(c2ccccc2F)C(C(=O)Nc2cccnc2)=C(C)N3)cc1OC (stereo unspecified) | inactive
N/C(=N\O)c1cn(Cc2ccccc2Cl)c2ccccc12 | inconclusive: 20.6 µM [falling, single point]
CCOC(=O)C1=C(CC)Nc2ccccc2N/C1=N\S(=O)(=O)c1ccccc1F | inconclusive: 32.6 µM [falling, single point]
Cc1ccc(-c2nnn(CC(=O)N(c3cnc4ccccc4c3)C(C(=O)NC3CCCC3)c3ccncc3)n2)o1 (stereo unspecified) | inconclusive: 23.1 µM [falling, single point]
Cc1ccc(Oc2c(C)nc(-c3ccccc3)[nH]c2=O)cc1 | inconclusive: 25.9 µM [falling, partial curve, poor fit]
CC(C)(C)OC(=O)N1CCC(c2c(C(=O)N3CCc4ccccc4C3)cnn2-c2ccc(Cl)cc2)CC1 | inconclusive: 2.31 µM [activator, partial curve]
CC(C)CC(=O)Nc1ccc(Cc2ccncc2)cc1 | inconclusive: 3.26 µM [falling, partial curve, poor fit]
O=C(O)c1c(F)c(F)c(F)c(F)c1-c1ccc(Cl)cc1 | inconclusive: 29.1 µM [falling, single point]
CCNc1ccc(C(=O)N/N=C/c2c(C)nn(-c3ccccc3)c2N2CCCC2)cc1[N+](=O)[O-] | inconclusive: 6.51 µM [falling, single point]
CCc1ccccc1NC(=S)N(Cc1ccco1)C(C)c1cccs1 (stereo unspecified) | inactive
CSc1ccccc1OCc1cc(C(=O)N(C)Cc2nonc2C)no1 | inconclusive: 2.59 µM [activator, full curve]
Cc1cc(C)cc(C(=O)N2CC(=O)Nc3ccc(C)cc3C2c2ccccc2)c1 (stereo unspecified) | inconclusive: 16.4 µM [falling, partial curve, poor fit]

Single entries from the results shown.
Value for `CCCn1c(C)cc(C(=O)CSc2nc3ccccc3c(=O)n2Cc2ccco2)c1C` under Potency: inconclusive: 1.46 µM [activator, partial curve]
Value for `CCOC(=O)c1sc(Nc2ccc(C)cc2C)nc1C` under Potency: inconclusive: 35.5 µM [falling, single point]
